Results from the supplement of paper PMC12819154, “High-throughput peptide-centric local stability assay extends protein–ligand identification to membrane proteins, tissues and bacteria” (Nature Structural & Molecular Biology, 2025).
This is one part of the list. Most entries show no effect beyond the scatter of the controls.

Chains of the proteins cited; added tags and fusions are not shown. Lines headed by an entry give the natural chain unless they say otherwise; changes in a name come on top.
UniProt P04425: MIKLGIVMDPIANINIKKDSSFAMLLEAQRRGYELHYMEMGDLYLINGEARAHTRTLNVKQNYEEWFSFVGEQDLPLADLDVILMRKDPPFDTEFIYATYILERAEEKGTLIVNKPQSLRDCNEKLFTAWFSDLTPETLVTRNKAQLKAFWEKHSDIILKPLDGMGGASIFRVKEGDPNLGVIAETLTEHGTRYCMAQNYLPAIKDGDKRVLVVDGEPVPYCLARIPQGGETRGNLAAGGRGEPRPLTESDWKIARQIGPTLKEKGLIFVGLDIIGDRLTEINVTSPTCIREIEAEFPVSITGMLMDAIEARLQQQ
UniProt P00934: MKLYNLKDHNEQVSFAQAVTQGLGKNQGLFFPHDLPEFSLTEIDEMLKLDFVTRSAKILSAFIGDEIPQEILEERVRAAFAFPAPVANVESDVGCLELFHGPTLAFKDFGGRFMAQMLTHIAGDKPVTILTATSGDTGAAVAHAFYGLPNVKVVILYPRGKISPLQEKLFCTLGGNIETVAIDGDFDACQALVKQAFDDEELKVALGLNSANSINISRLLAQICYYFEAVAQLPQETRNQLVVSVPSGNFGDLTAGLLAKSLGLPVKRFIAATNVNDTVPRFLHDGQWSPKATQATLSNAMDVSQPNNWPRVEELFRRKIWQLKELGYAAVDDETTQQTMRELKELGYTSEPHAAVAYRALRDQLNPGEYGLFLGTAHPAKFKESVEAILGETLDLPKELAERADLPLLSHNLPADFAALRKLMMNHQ
UniProt P00452: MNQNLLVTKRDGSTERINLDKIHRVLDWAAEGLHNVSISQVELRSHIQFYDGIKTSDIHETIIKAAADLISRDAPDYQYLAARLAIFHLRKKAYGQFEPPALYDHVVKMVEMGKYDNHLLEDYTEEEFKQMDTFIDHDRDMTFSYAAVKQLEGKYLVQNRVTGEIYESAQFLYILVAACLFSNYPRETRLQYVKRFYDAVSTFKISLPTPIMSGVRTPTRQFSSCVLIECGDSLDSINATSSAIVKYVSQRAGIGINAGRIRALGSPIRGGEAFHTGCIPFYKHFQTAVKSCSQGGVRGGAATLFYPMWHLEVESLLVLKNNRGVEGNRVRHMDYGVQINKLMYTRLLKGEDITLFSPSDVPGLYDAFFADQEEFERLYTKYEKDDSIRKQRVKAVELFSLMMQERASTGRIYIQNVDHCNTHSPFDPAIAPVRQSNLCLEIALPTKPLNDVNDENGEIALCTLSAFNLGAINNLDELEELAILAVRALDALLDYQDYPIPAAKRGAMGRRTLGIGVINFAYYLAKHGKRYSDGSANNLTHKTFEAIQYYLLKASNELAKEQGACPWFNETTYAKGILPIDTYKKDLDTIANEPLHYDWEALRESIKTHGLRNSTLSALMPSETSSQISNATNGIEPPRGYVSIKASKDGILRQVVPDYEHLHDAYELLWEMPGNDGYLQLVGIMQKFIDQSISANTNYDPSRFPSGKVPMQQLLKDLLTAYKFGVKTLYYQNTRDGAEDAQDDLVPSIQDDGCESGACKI
UniProt P09980: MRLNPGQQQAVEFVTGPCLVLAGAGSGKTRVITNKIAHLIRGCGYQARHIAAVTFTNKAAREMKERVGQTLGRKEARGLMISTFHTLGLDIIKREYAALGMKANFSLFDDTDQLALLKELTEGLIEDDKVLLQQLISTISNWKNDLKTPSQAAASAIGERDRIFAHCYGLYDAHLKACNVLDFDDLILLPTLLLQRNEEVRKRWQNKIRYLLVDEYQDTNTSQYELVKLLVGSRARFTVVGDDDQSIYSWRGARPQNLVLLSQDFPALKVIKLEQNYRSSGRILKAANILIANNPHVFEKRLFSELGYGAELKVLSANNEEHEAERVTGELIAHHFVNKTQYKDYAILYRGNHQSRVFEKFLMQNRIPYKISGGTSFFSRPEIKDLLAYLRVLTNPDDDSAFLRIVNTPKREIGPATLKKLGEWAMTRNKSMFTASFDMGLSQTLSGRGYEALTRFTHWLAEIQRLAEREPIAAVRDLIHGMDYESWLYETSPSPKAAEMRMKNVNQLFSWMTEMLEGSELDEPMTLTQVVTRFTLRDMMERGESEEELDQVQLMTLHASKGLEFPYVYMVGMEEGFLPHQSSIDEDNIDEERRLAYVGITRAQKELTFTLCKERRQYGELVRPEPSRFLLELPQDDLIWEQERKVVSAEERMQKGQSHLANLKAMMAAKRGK

What follows are targets tested with CC1(C)S[C@@H]2[C@H](NC(=O)[C@H](N)c3ccccc3)C(=O)N2[C@H]1C(=O)O [ampicillin] (assay: log2 fold change of tryptic peptide abundance, ligand vs vehicle (limited proteolysis) (log2 ratio); higher = more trypsin-susceptible (destabilized)). Settings: ligand concentration: 10 uM; sample: E. coli crude lysate.

Target	log2 fold change
UniProt P04425 (peptide sequence: GEPRPLTESDWK, peptide start residue: 242)	-0.207
UniProt P00934 (peptide sequence: ADLPLLSHNLPADFAALRK, peptide start residue: 404)	0.277
UniProt P00452 (peptide sequence: HMDYGVQINKLMYTR, peptide start residue: 332)	-0.215
UniProt P09980 (peptide sequence: RLAYVGITR, peptide start residue: 594)	-0.527
